Reference: patent US20130217582, “Library Compositions and Methods for Acyclic Identification of Aptamers” (published 2013)

Chains of the proteins cited; added tags and fusions are not shown. A line that says so, or that is headed by a name, gives the form on record, which may keep a tag or linker.
Coagulation factor IXa (FIXa) (Homo sapiens), one chain, as listed by the source, chain 2 of 2: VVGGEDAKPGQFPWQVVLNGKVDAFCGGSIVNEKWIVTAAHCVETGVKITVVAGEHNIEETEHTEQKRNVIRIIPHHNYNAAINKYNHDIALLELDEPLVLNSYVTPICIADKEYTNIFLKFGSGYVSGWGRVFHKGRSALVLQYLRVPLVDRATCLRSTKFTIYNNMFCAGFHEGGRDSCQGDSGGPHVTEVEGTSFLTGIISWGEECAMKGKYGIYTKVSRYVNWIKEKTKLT
Coagulation factor IXa (FIXa) (Homo sapiens), one chain, as listed by the source, chain 1 of 2: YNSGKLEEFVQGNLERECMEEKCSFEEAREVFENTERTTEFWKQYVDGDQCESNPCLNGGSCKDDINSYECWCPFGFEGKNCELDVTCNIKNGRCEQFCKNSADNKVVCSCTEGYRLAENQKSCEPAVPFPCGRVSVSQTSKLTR

system: Coagulation factor IXa (FIXa) (Homo sapiens); test: SELEX; settings: top-9 sequence counted >=1000; count in image; 20 mM Tris pH 7.4, 140 mM NaCl, 5 mM KCl, 1 mM CaCl2, 1 mM MgCl2, 25 C; purified native protein

Selection result, selected:
ACGACGCUCUUCCGAUCUAUGGGAAGGAAUGUCCGUCCCCACCUGCGGUUGGCUUGAAAGCUAACGGAGCUCGUAUGC [FIXa aptamer SEQ 104]

same assay, conditions: top-9 sequence counted >=1000; count in image; purified native protein

Selection result, selected:
ACGACGCUCUUCCGAUCUAUGGACAGGAUGGUUUCGCUUUUAGAUGCGGUAAGUGCAAAGCUAACGGAGCUCGUAUGC [FIXa aptamer SEQ 143]
ACGACGCUCUUCCGAUCUAUGGACGAUUGUCCCCCAGAGUGUUGCACGCACGUCCGGAAGCUAACGGAGCUCGUAUGC [FIXa aptamer SEQ 110]
ACGACGCUCUUCCGAUCUAUGGGAAUGUACUUGGUUGCUCCUUGCCCCCGCGUAGUCAAGCUAACGGAGCUCGUAUGC [FIXa aptamer SEQ 149]
ACGACGCUCUUCCGAUCUAUGGUCCAAGCAUAACCUGUGUCCGGUAGAUCAUGCCCGAAGCUAACGGAGCUCGUAUGC [FIXa aptamer SEQ 138]
ACGACGCUCUUCCGAUCUAUGGUCGCCGGGUACCCAUUCCAGGGGGGGAUCGGUCGUAAGCUAACGGAGCUCGUAUGC [FIXa aptamer SEQ 140]

Construct, isoform or probe ends are uncertain for at least one entry.
